Out of some 300,000 compounds screened, about 5,400 (1.8%) were called active. Inconclusive results, whose numbers are uncertain, are shown with a selection of clear calls. The call rests on the fitted dose curve; tested in HEK293 cells. A potency beside an inconclusive call is a rough fit, not a confirmed value.
Assay: qHTS for inhibitors of binding or entry into cells for Marburg Virus
Settings: Marburg virus pseudotyped entry inhibition, cell reporter; activity change, negative = inhibition: at 37.8 µM (top of the series) unless noted
With `CCC(=O)Nc1ccc(-c2nn3c(C)nnc3s2)cc1C` the Potency was inconclusive: 29.1 µM [activator, partial curve, poor fit].
In the case of `Fc1ccc(-c2csc(N3CCOCC3)n2)cc1`, the Potency is reported as inconclusive: 11.2 µM [activator, partial curve, poor fit].
With `COc1ccccc1NC(=S)N(Cc1cccs1)C1CCCC1` the Potency was inconclusive: 35.5 µM [inhibitor, single point].
For `O=[N+]([O-])c1ccc(CN2CCN(c3ccccc3)CC2)o1`, the “activity change, negative = inhibition” value was inactive: 2.72% [at 46.1 µM].
For `COc1cccc(/C=N/Nc2nc3ccccc3n3cnnc23)c1O`, the Potency was active: 8.91 µM.
With `COCCCN(C(=O)c1cc(Cl)nc2ccccc12)c1c(N)n(Cc2ccccc2)c(=O)[nH]c1=O` the Potency was inconclusive: 0.112 µM [activator, full curve, poor fit].
In the case of `Cc1ccc(Cn2ncc(C)c2N)o1`, the “activity change, negative = inhibition” value is reported as inactive: 0.165%.
With `CN1c2ccccc2-c2nc3ccccc3n2[C@H]1c1ccco1` the Potency was inconclusive: 10 µM [inhibitor, partial curve, poor fit].
For `O=C(O)c1cccc(S(=O)(=O)N(Cc2ccccc2)c2ccc(Cl)cc2)c1`, the Potency was inconclusive: 5.62 µM [inhibitor, single point].
In the case of `O=C(NCC1(c2ccccc2)CCCC1)c1ccc(Br)o1`, the Potency is reported as inconclusive: 1.26 µM [activator, partial curve, poor fit].
In the case of `COCc1cc(=O)oc2cc(NC(=O)c3ccc(C(C)(C)C)cc3)ccc12`, the Potency is reported as inconclusive: 35.5 µM [inhibitor, single point].
In the case of `COc1ccc(-c2nc3ccccc3c(=O)o2)cc1`, the Potency is reported as inconclusive: 3.16 µM [activator, full curve].
In the case of `Cc1ccccc1N1CC(C(=O)Nc2ccc(S(=O)(=O)N3CCOCC3)cc2)CC1=O` (stereo unspecified), the Potency is reported as inconclusive: 22.4 µM [activator, single point].
For `COc1ccc(S(=O)(=O)N2CCCCCC2)cc1C(=O)N(C)Cc1ccc(C(C)(C)C)cc1`, the Potency was inconclusive: 35.5 µM [inhibitor, single point].
For `Cn1nc(C(=O)NC2CCCc3ccccc32)ccc1=O` (stereo unspecified), the Potency was inconclusive: 6.31 µM [activator, single point].
With `CCNc1nc(NC(C)C)nc(Oc2ccc(=O)n(C)n2)n1` the activity change, negative = inhibition was inconclusive: 40.7% [activator] [at 46.1 µM].
With `CCOCCCNC(=S)Nc1ccc(S(N)(=O)=O)cc1` the Potency was inconclusive: 22.4 µM [activator, single point].
With `O=C(CCNS(=O)(=O)c1ccccc1)N1CCC(Cc2ccccc2)CC1` the Potency was inconclusive: 35.5 µM [inhibitor, single point].
For `Cc1cc(C)c(NC2=CC(=O)CC(C)(C)C2)c(C#N)c1`, the “activity change, negative = inhibition” value was inactive: -0.784%.
In the case of `O=S(=O)(N/N=C\c1cn(-c2ccccc2)nc1-c1ccccc1)c1ccccc1`, the “activity change, negative = inhibition” value is reported as inactive: -4.94%.
For `CC1CCN(C(=O)/C(=C/c2ccccc2Cl)c2ccccc2)CC1`, the Potency was inconclusive: 35.5 µM [inhibitor, single point].
For `COc1ccc(CNC(=O)COC(=O)c2n[nH]c3ccccc23)cc1OC`, the Potency was inconclusive: 16.4 µM [inhibitor, partial curve, poor fit].
In the case of `Cc1cccc(N2CCN(c3nc(C)cc(C)c3C#N)CC2C)c1` (stereo unspecified), the Potency is reported as inconclusive: 35.5 µM [inhibitor, partial curve, poor fit].
For `COc1ccc(C(C(=O)NCC2CCCO2)N(Cc2ccccc2)C(=O)c2snc(C(N)=O)c2N)cc1OC` (stereo unspecified), the Potency was inconclusive: 1.12 µM [inhibitor, full curve, poor fit].
In the case of `CCOc1ccc(C(=O)NCC(=O)N2CCN(c3ccccc3O)CC2)cc1`, the “activity change, negative = inhibition” value is reported as inactive: -12.5% [at 46.1 µM].
In the case of `CCOC(=O)c1c(C)oc2c1c(C(c1cccnc1)N1CCN(C)CC1)c(O)c1ccccc12` (stereo unspecified), the “activity change, negative = inhibition” value is reported as inactive: -1.12%.
In the case of `CCN(CC)CCN(C(=O)c1ccc2ccccc2c1)c1nc2ccc(F)cc2s1`, the Potency is reported as inconclusive: 3.98 µM [activator, single point].
In the case of `CN1CCC(=NNC(=O)C(=O)Nc2ccccc2)CC1`, the “activity change, negative = inhibition” value is reported as inactive: 3.9%.
In the case of `COc1ccc(C(=O)Nc2ccc(N3CCN(Cc4ccccc4)CC3)cc2)cc1`, the “activity change, negative = inhibition” value is reported as inactive: 0.371% [at 46.1 µM].
With `Cc1cc(C)nc(SCc2nnc(SCC(=O)Nc3nccs3)n2Cc2ccco2)n1` the Potency was “inactive”.
With `COc1ccccc1Nc1cc(C(=O)NCc2cccnc2)c2ccccc2n1` the Potency was inconclusive: 35.5 µM [inhibitor, single point].
In the case of `CCCOc1ccc(C(=O)c2ccccc2C(=O)OC2CCOC2=O)cc1OCCC` (stereo unspecified), the “activity change, negative = inhibition” value is reported as inactive: 2.07%.
For `COc1cc(-c2cc(C(=O)NCc3ccco3)c3ccccc3n2)cc(OC)c1OC`, the Potency was inconclusive: 3.55 µM [inhibitor, partial curve, poor fit].
With `CC(C)CON=C1C[C@@H](O)[C@@H](O)[C@@H]2[C@H]3C(=O)N(c4ccc(F)cc4F)C(=O)[C@@H]3CC[C@@H]12` the Potency was inconclusive: 1.19 µM [activator, single point].
For `CCc1ccc(N2C(=O)Cc3c2nc(N)c(C#N)c3N)cc1`, the “activity change, negative = inhibition” value was inactive: 18.2%.
For `Cc1ccc(C(c2c(C)[nH][nH]c2=O)c2c(C)[nH][nH]c2=O)cc1`, the Potency was inconclusive: 3.98 µM [inhibitor, single point].
In the case of `O=C(COc1ccc(Br)cc1)Nc1ccc(C(=O)Nc2ccccc2C(=O)O)cc1`, the “activity change, negative = inhibition” value is reported as inactive: 22.4%.
In the case of `O=C(CCCc1nc(-c2ccc(Cl)cc2)no1)NC1CCCC1`, the Potency is reported as inconclusive: 7.08 µM [inhibitor, partial curve, poor fit].
With `Fc1ccc(Cn2nnnc2CN2CCc3ccccc3C2)cc1` the Potency was inconclusive: 10 µM [inhibitor, partial curve, poor fit].
For `C/C(=N\NC(=O)CCc1ccccc1)C1C(=O)c2ccccc2C1=O`, the Potency was inconclusive: 35.5 µM [inhibitor, single point].
With `CCOc1ccccc1NC(=O)c1sc2nc(-c3ccc(OC)cc3)ccc2c1N` the Potency was inconclusive: 14.1 µM [activator, single point].
For `CC(C)OC(=O)C1C(=O)CC(C)(O)C(C(=O)OC(C)C)C1c1cccc(O)c1` (stereo unspecified), the Potency was “inactive”.
With `COc1cc2c(C(=O)Nc3ccc(C)cc3Br)cn(C)c(=O)c2cc1OC` the “activity change, negative = inhibition” value was inactive: 18.7% [at 46.1 µM].
In the case of `CCCCn1c(N)c(N(CC(C)C)C(=O)c2ccc(N3C(=O)c4ccccc4C3=O)cc2)c(=O)[nH]c1=O`, the Potency is reported as inconclusive: 31.6 µM [activator, single point].
With `Clc1cccc(CNc2nnnn2-c2ccccc2)c1` the Potency was inconclusive: 10 µM [inhibitor, partial curve, poor fit].
For `Cc1cc2cc3c(cc2nc1SCC(=O)Nc1ccccc1)CCC3`, the Potency was inconclusive: 4.11 µM [inhibitor, full curve, poor fit].
In the case of `COC(=O)c1c(N2C(=O)CC(Sc3ncccc3C(=O)O)C2=O)sc(C)c1C` (stereo unspecified), the Potency is reported as inconclusive: 6.31 µM [activator, single point].
In the case of `CC(=O)CSc1nnc(Cc2ccc([N+](=O)[O-])cc2)o1`, the Potency is reported as inconclusive: 5.8 µM [activator, full curve, poor fit].
For `CN(C(=O)CSc1nnc(-c2cccs2)n1C1CC1)C1CCS(=O)(=O)C1` (stereo unspecified), the “activity change, negative = inhibition” value was inactive: 29.8%.
With `COc1ccc(-c2nc3ccccc3o2)cc1NC(=O)CSc1ccc(Cl)cc1` the Potency was inconclusive: 35.5 µM [inhibitor, single point].
In the case of `Cc1cccc(NS(=O)(=O)c2ccc3c(c2)Cc2cc(S(=O)(=O)Nc4cccc(C)c4C)ccc2-3)c1C`, the Potency is reported as inconclusive: 7.94 µM [inhibitor, partial curve, poor fit].
For `Cc1ccc(OCC(=O)Nc2ccc(N3CCCC3)cc2)cc1C`, the Potency was inconclusive: 8.2 µM [inhibitor, partial curve, poor fit].
With `Cc1ccc(C(=O)N2CCN(S(=O)(=O)c3cc(Br)ccc3Br)CC2)o1` the Potency was inconclusive: 6.31 µM [inhibitor, partial curve, poor fit].
For `CN1CCN(C(=O)c2cnn3c(C(F)F)cc(C4CC4)nc23)CC1`, the “activity change, negative = inhibition” value was inactive: 6.77%.
For `COc1ccc(NC(=O)C(C)N2c3cccc4cccc(c34)S2(=O)=O)cc1OC` (stereo unspecified), the Potency was inconclusive: 5.17 µM [inhibitor, full curve, poor fit].
For `COc1ccc(S(=O)(=O)N2CCC3(CC2)OCCN3S(=O)(=O)c2ccccc2)cc1OC`, the “activity change, negative = inhibition” value was inactive: 27.6%.
For `Cc1cc(C)c2nc(N(CCCN(C)C)C(=O)c3ccc(S(=O)(=O)N4CC(C)OC(C)C4)cc3)sc2c1` (stereo unspecified), the Potency was inconclusive: 35.5 µM [inhibitor, single point].
With `CCCSc1nc2c(c(=O)n(C)c(=O)n2C)n1Cc1ccc(C)cc1` the Potency was inconclusive: 35.5 µM [inhibitor, single point].
With `COc1ccc(/C=N/NC(=O)c2nc(-c3ccccc3)cc(-c3ccccc3)n2)cc1OC` the Potency was inconclusive: 35.5 µM [inhibitor, single point].
In the case of `COc1ccc(OC)c(CCNC(=O)CN2C(=O)COc3ccc(S(=O)(=O)N4CCC(C)CC4)cc32)c1`, the “activity change, negative = inhibition” value is reported as inactive: -9.58% [at 46.1 µM].
In the case of `CCCC(=O)NC(c1cccs1)c1cc([N+](=O)[O-])c2cccnc2c1O` (stereo unspecified), the Potency is reported as inconclusive: 12.6 µM [inhibitor, partial curve, poor fit].
In the case of `COc1ccc(Cn2nnnc2CN2CCC(c3nc4ccccc4s3)CC2)cc1`, the Potency is reported as inconclusive: 29.1 µM [inhibitor, single point].
For `CCCCNc1nc(Oc2ccc(OCCC)nn2)nc(N(C)C)n1`, the “activity change, negative = inhibition” value was inactive: 0.479% [at 46.1 µM].
For `Cn1c(=O)cc(C(=O)N/N=C/c2ccc(Cl)cc2)[nH]c1=O`, the Potency was inconclusive: 3.98 µM [activator, single point].
For `COCCCNCCOCCSc1ccc(Cl)cc1`, the Potency was inconclusive: 35.5 µM [inhibitor, single point].
With `CCOC(=O)C1(Cc2cccc(OC)c2)CCCN(Cc2cc(C(C)C)n[nH]2)C1` (stereo unspecified) the Potency was inconclusive: 15.8 µM [inhibitor, partial curve, poor fit].
On the % scale 0 is the no-effect control and ±100 the full control effect; potency means the concentration at half of the fitted maximal effect.
